Where two headings read alike, the source gives them in different places.
What was measured:
[1] = tested on: SJCRH30 (human alveolar rhabdomyosarcoma) cells; assay: MTT cell viability assay in SJCRH30 cells; type: cell-based; conditions: 24 h, SJ-S drugs, read-out: IC50(μM) RMS
Description: (§1) The RD (human embryonal rhabdomyosarcoma) and CCD-18Co (human colon fibroblast) cell lines were purchased from the Korean Cell Line Bank (KCLB). SJCRH30 (human alveolar rhabdomyosarcoma) cell line was purchased from the American Type Culture Collection (ATCC). RD and CCD-18Co cells were maintained in Dulbecco’s Modified Eagle’s Medium (DMEM; Gibco) supplemented with 10% fetal bovine serum (FBS; Gibco) and 1% penicillin/streptomycin (P/S; Gibco). SJCRH30 cells were maintained in Roswell Park Memorial Institute medium (RPMI 1640, Gibco) supplemented with 10% FBS and 1% P/S. Cells were grown in a humidified chamber containing 5% CO2 at 37°C. Cell line authentication was performed by short tandem repeat profile using PowerPlex® 18D system (Promega Corporation) and sequencing apparatus Applied Biosystems 3130xl Genetic Analyzer (Applied Biosystem) according to manufacturer’s protocol.
(§2) SJCRH30, RD, and CCD-18Co cells were seeded at 2 × 10^4 cells/well in 96-well plates. The candidate drugs were treated for 24 h. AZ628, BIX02189, fedratinib, nutlin-3a, VX-11e, SB590885, NSC207895, tubastatin A, CX-5461, navitoclax, GSK1070916 and the FDA-approved drug library were purchased from Selleckchem. […] Absorbance was measured at 570 nm using a Molecular Devices VersaMax microplate reader and SoftMax® Pro 5 software. IC50 was calculated with GraphPad Prism 7 software.

[2] = tested on: CCD-18Co (human colon fibroblast) cells; assay: MTT cell viability assay in normal control cells; type: cell-based
Description: as §1, §2

IC50 ([1]; Homo sapiens, Rhabdomyosarcoma cell): 0.853 µM
IC50 [1]: 0.853 µM
SMILES: O=C(CCCCCCC(=O)Nc1ccccc1)NO [Vorinostat]
selective anti-cancer activity against the RMS cell lines ([2]; based on the CCD-18Co control results): selective anti-cancer activity
IC50(μM) CCD-18Co ([2]; normal cell control, 24 h, MTT): No cytotoxicity

Reference: article PMC10817174, “Integrated drug response prediction models pinpoint repurposed drugs with effectiveness against rhabdomyosarcoma” (PLOS ONE, 2024)
